Experimental data from PubChem BioAssay AID493014 (National Center for Advancing Translational Sciences (NCATS), 2011).
This is one part of the list. Shown are side measurements of this screen, not its main read-out; they come without a call. Most of these compounds were active or inconclusive in the main read-out, so they are no random draw. Words in brackets tell the shape of the fitted curve; partial curves, single points and poor fits give uncertain potencies.

Assay: qHTS Assay to Find Inhibitors of Chronic Active B-Cell Receptor Signaling
Settings: ABC-DLBCL IkBa-CBG/CBR reporter, luminescence ratio (green luciferase fused to IkBa over red control in TMD8 lymphoma cells), 4 h
Summary of the method: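 Cell line TMD8 (human ABC DLBCL), stably expressing tet-inducible CBG68-IkBa fusion and CBR; IMDM/0.5% FBS; cpd up to 46 uM; dox induction, 4 h, 37C/5% CO2; dual luminescence; green/red ratio; MG132 control.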

[1] = measured here: CBR red luminescence, cell number

Row | SMILES | AC50 [1] | AC50 (measured here: IkBa-CBG green luminescence)
1 | O=C(CSc1nnc2c(n1)[nH]c1ccccc12)NC1CCCCC1 | 35.5 µM [rising, partial curve, poor fit] | –
2 | COc1ccccc1C1CC(c2cccs2)=Nc2ccccc2S1 (centres undefined) | 20.6 µM [falling, single point] | –
3 | COc1cccc2sc(N(Cc3cccnc3)C(=O)COc3ccccc3)nc12 | 22.4 µM [falling, partial curve, poor fit] | –
4 | COC(=O)[C@]1(C)N[C@H](c2ccc(-c3cccc(Cl)c3)c(OC)c2)[C@@H]2C(=O)N(C)C(=O)[C@@H]21 | 32.6 µM [falling, single point] | –
5 | CN(C)c1nc2c(c(N)nn2-c2ccc(Cl)cc2)c(=O)o1 | 0.112 µM [falling, full curve, poor fit] | –
6 | OC(COCc1ccc(Cl)cc1)CN1CCc2ccccc2C1 (centres undefined) | 0.103 µM [rising, full curve] | –
7 | COCCSc1ccccc1C(=O)Nc1cc(C)cc(C)c1 | 31.6 µM [rising, single point] | –
8 | CCOC(=O)C1=C(C)NC2=C(C(=O)CCC2)C1c1cccnc1 (centres undefined) | 0.0058 µM [rising, full curve, poor fit] | –
9 | CCc1nnc(NS(=O)(=O)c2ccc(NC(=O)COc3ccc4ccccc4c3)cc2)s1 | 10 µM [falling, partial curve] | –
10 | O=C(C1CC1)N1CCN(c2nc3ccccc3s2)CC1 | 2.51 µM [rising, partial curve, poor fit] | –
11 | CSCCC(NC(=O)c1ccccc1)C(=O)N1CC=C(c2ccccc2)CC1 (centres undefined) | 7.08 µM [falling, partial curve] | –
12 | O=C(O)CSCC(=O)NCc1c(Cl)cccc1Oc1ccccc1 | 7.94 µM [rising, partial curve] | –
13 | COc1ccc(C(C)=O)c2c1OCCO2 | 5.62 µM [falling, single point] | –
14 | CCN1C(=NCC2CC2)N[C@@H](c2cccc(C(F)(F)F)c2)C(C(=O)OC)=C1C | 17.8 µM [falling, single point] | –
15 | CC(NC(=O)CN1C(=O)c2ccccc2C1=O)c1ccccc1 (centres undefined) | 35.5 µM [rising, partial curve, poor fit] | –
16 | CCC(Oc1ccccc1C)C(=O)Nc1ccc(S(=O)(=O)Nc2cc(C)on2)cc1 (centres undefined) | 35.5 µM [falling, partial curve, poor fit] | –
17 | CCOC(=O)c1c(C=O)c(C)n(Cc2ccccc2)c1C | 18.4 µM [rising, partial curve] | 20.6 µM [falling, partial curve]
18 | Cc1nn(C)c(C(=O)NC(=S)Nc2ccccc2Br)c1Cl | 6.31 µM [rising, partial curve, poor fit] | –

2 of the compounds above, in markdown.

| Row | SMILES | AC50 [1] | AC50 (measured here: IkBa-CBG green luminescence) |
| --- | --- | --- | --- |
| 3 | COc1cccc2sc(N(Cc3cccnc3)C(=O)COc3ccccc3)nc12 | 22.4 µM [falling, partial curve, poor fit] | – |
| 11 | CSCCC(NC(=O)c1ccccc1)C(=O)N1CC=C(c2ccccc2)CC1 (centres undefined) | 7.08 µM [falling, partial curve] | – |
